In paper PMC6335052:
Results are given in words; binding and its absence hold for the method and conditions named. Tags and fused reporters may be left off the sequences shown.

Molecular target: T1, Piwi, yeast two-hybrid fusion (Drosophila melanogaster), Q9VKM1
T1 chain: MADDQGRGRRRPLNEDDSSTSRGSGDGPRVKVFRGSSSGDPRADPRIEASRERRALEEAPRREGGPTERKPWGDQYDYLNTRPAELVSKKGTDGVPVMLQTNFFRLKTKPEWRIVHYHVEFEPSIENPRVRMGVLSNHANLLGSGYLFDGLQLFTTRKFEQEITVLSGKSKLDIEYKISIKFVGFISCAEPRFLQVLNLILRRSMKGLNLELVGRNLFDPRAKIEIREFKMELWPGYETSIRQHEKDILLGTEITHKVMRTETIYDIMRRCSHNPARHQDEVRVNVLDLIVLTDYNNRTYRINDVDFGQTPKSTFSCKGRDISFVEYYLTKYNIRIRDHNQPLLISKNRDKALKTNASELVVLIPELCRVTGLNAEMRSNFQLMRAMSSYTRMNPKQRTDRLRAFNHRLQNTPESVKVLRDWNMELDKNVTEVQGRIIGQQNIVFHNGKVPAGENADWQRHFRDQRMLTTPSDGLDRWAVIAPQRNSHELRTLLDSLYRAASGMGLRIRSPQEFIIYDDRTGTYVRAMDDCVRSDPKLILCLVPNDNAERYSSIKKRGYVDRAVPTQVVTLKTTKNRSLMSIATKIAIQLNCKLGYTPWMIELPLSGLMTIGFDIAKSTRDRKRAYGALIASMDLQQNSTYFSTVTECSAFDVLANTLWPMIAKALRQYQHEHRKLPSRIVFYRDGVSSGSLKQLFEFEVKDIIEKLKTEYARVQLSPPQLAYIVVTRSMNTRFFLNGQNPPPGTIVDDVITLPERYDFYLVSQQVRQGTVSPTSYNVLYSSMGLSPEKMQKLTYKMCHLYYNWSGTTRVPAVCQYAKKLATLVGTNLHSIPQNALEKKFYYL
Assay: two-hybrid; pGBKT7 bait and pGAD prey plasmids co-transformed into AH109 yeast; colonies from SC-WL picked onto selective SC-WLH or SC-WLHA plates
Details: remark: other sources report otherwise

binding: no binding
B1: Heterochromatin Protein 1a (HP1a), yeast two-hybrid fusion, P05205 1-206 (protein)
chain: MGKKIDNPESSAKVSDAEEEEEEYAVEKIIDRRVRKGKVEYYLKWKGYPETENTWEPENNLDCQDLIQQYEASRKDEEKSAASKKDRPSSSAKAKETQGRASSSTSTASKRKSEEPTAPSGNKSKRTTDAEQDTIPVSGSTGFDRGLEAEKILGASDNNGRLTFLIQFKGVDQAEMVPSSVANEKIPRMVIHFYEERLSWYSDNED
